Measured values from paper PMC11570969.

The chains behind the UniProt entries cited, without tags or fusion partners.
UniProt Q62205: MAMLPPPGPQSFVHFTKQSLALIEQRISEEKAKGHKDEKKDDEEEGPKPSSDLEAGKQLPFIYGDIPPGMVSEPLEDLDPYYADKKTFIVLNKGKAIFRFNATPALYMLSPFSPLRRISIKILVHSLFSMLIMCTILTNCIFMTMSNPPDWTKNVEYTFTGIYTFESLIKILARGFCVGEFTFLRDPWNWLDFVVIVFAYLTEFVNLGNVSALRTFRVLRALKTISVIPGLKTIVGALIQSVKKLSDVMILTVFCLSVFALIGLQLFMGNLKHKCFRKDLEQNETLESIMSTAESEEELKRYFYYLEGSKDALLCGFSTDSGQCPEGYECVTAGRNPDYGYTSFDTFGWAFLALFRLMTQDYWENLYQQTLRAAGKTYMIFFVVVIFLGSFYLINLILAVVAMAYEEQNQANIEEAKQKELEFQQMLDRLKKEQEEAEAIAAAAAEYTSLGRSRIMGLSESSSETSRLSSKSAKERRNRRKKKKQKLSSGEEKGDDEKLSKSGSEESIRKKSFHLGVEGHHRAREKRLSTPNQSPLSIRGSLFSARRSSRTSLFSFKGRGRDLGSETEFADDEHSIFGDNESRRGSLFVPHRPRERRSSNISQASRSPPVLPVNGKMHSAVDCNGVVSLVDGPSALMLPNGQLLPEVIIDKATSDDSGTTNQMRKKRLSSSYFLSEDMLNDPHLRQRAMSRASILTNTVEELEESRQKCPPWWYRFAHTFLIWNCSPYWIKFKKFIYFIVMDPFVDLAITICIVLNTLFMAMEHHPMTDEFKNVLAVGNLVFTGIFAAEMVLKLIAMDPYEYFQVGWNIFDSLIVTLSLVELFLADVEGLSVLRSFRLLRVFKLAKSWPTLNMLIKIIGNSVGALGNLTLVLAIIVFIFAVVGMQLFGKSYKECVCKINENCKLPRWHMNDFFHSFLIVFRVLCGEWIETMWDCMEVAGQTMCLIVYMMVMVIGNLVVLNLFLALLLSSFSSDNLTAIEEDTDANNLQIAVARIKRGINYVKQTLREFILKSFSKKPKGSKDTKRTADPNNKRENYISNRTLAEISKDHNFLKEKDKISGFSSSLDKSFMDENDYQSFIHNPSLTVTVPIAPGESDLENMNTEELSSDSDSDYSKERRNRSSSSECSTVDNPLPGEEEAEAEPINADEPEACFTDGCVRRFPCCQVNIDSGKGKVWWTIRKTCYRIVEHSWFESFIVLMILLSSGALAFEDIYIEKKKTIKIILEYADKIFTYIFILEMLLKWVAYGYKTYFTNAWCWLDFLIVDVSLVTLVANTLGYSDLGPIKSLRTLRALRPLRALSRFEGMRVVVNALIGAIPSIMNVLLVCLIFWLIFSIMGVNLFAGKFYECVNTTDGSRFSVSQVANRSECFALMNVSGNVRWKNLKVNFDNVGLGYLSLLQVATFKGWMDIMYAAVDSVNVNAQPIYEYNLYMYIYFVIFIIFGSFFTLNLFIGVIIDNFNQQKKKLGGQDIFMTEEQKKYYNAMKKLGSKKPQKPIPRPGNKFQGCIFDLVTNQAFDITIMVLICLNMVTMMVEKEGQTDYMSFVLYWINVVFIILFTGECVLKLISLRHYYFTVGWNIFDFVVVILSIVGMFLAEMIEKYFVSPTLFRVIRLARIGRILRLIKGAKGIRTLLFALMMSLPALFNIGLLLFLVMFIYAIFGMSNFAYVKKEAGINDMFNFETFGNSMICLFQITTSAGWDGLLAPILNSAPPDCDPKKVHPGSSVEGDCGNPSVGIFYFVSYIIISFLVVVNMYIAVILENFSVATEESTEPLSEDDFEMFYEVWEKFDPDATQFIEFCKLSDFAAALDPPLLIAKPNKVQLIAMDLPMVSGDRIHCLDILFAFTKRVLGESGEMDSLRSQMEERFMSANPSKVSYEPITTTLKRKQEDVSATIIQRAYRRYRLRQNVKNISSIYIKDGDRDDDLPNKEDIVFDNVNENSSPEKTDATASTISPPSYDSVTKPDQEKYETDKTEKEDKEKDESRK
UniProt B1AWN6: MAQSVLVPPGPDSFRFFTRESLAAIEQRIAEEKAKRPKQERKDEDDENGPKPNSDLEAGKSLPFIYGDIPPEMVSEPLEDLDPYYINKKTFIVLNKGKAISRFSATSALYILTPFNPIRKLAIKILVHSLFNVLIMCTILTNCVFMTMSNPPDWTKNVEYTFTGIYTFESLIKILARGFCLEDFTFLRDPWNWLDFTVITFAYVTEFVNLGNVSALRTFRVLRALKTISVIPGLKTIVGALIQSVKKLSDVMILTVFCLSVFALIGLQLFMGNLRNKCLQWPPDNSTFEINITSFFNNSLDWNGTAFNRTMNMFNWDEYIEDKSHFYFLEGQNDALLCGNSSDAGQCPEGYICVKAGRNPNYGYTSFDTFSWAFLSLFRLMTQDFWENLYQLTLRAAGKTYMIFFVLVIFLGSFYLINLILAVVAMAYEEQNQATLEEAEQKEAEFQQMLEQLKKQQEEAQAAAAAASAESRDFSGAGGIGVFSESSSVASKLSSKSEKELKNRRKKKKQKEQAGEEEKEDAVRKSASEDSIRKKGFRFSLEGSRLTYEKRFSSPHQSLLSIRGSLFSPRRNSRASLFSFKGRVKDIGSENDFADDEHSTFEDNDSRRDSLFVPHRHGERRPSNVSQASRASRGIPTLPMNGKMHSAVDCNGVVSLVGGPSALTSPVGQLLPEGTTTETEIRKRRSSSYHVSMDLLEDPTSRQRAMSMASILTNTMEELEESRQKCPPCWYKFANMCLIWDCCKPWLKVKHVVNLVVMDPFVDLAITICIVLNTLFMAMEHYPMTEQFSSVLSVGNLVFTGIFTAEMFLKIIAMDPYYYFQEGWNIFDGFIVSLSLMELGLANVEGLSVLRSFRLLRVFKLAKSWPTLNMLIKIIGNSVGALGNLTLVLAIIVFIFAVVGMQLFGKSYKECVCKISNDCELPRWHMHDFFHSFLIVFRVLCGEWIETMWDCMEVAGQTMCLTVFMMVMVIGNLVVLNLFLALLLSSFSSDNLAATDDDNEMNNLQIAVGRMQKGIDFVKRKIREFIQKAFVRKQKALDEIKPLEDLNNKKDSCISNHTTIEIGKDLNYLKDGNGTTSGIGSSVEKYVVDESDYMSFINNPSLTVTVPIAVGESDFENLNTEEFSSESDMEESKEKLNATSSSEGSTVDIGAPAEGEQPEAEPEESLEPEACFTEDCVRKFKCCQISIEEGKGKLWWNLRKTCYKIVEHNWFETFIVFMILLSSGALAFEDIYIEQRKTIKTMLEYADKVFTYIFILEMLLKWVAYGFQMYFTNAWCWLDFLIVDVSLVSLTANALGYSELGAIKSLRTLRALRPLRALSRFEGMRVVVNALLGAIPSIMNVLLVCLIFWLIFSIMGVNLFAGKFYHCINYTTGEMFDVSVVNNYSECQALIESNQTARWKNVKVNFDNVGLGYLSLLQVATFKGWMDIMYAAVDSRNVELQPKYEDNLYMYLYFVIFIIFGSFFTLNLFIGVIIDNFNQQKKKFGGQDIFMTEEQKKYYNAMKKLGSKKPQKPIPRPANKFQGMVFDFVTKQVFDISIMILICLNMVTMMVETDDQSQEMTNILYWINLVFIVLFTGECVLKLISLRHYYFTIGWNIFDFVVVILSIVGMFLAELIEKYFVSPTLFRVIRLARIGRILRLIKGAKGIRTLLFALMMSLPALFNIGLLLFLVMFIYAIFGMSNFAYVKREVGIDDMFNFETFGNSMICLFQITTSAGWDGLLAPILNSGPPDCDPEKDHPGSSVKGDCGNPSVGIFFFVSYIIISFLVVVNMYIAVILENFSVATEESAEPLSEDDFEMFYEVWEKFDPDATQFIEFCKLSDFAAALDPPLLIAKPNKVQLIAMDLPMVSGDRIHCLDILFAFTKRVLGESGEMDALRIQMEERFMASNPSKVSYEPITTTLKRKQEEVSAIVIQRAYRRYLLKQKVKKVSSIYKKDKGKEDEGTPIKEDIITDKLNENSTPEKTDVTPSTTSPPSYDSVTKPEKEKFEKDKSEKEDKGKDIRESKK

Target: Epitope-tagged Nav1.7 (TAP-tagged Nav1.7, knock-in mouse) (mouse) (UniProt Q62205)
Assay: affinity purification with mass spectrometry; epitope-tagged (TAP-tagged) Nav1.7 mice; Nav1.7 complexes purified with M2 Magnetic FLAG coupled beads; mass spectrometry of the immunoprecipitates, as described in Kanellopoulos et al., 2018

binding: binds
Substance: Sodium channel Nav1.2 (from UniProt B1AWN6 1-2006)

Results are given in words; binding and its absence hold for the method and conditions named. Binding seen in cells or lysates may run through a third protein. A yes stands for co-enrichment or nearness to the bait. Other partners may have been found.
